PubChem BioAssay AID493246, Drosophila RNAi Screening Center | 2011

Aim: 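Genes fly cells need to grow and stay alive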 (primary screen)
Cell system: Drosophila Kc and S2R+ cells
Reagent: long dsRNA against Drosophila genes
Detection: 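Cell number per well after knock-down, printed as raw plate values; calls were based on per-plate z-scores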
Scale: Kc cell number and S2R+ cell number: higher = more cells remaining
Active means: 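Active when the per-plate z-score of cell number is 3 or more in the direction of fewer cells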
The deposit covers about 21,000 reagents; this is a random part of those with a known target gene and a result. Over the whole deposit, 429 (2%) were called active. 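Values are raw and not normalised between plates; calls rest on per-plate z-scores that were not deposited.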 No sequences are given here. Not given: the amount of reagent, the time to read-out.

gene	dsRNA	Kc cell number, rep 1	Kc cell number, rep 2	S2R+ cell number, rep 1	S2R+ cell number, rep 2	call
CG42750	DRSC02458	2.56e5	2.87e5	3.67e5	4.65e5	active
CG42750	DRSC03019	1.79e6	1.72e6	1.24e6	1.38e6	inactive
CG42750	DRSC03024	1.85e6	1.88e6	1.43e6	1.72e6	inactive
nSyb	DRSC08727	1.43e6	1.48e6	1.12e6	1.20e6	inactive
Sara	DRSC04653	1.42e6	1.50e6	1.22e6	3.30e5	inactive
CG14963	DRSC08422	1.41e6	1.42e6	1.01e6	1.16e6	inactive
wupA	DRSC20385	1.49e6	1.31e6	1.07e6	1.13e6	inactive
CG14459	DRSC11719	8.47e5	5.90e5	4.81e5	5.53e5	active
Cisd2	DRSC14904	1.69e6	1.74e6	1.03e6	1.23e6	inactive
pasi1	DRSC16299	1.31e6	1.27e6	1.07e6	1.16e6	inactive
Or82a	DRSC11996	1.71e6	1.92e6	1.26e6	1.37e6	inactive
Bruce	DRSC16015	1.69e6	1.58e6	1.20e6	1.29e6	inactive
Hinfp	DRSC18484	1.45e6	1.50e6	1.00e6	1.09e6	inactive
CG4452	DRSC10422	1.61e6	1.60e6	1.13e6	1.15e6	inactive
ATbp	DRSC20906	1.52e6	1.61e6	9.91e5	1.15e6	inactive
CG6836	DRSC10722	1.83e6	1.91e6	1.58e6	1.54e6	inactive
Idgf1	DRSC03349	1.29e6	1.40e6	1.37e6	1.39e6	inactive
SLO2	DRSC06212	5.68e5	8.31e5	4.87e5	5.24e5	active
SLO2	DRSC06214	1.64e6	1.70e6	1.41e6	1.51e6	inactive
SLO2	DRSC06216	1.40e6	1.52e6	1.21e6	1.34e6	inactive
SLO2	DRSC06218	1.46e6	1.58e6	1.19e6	1.28e6	inactive
SLO2	DRSC06219	7.10e5	9.35e5	4.81e5	5.32e5	active
CG9338	DRSC03213	1.50e6	1.54e6	1.05e6	1.17e6	inactive
CAH14	DRSC04234	1.59e6	1.69e6	1.29e6	4.42e5	inactive
CoRest	DRSC19881	1.57e6	1.63e6	1.01e6	1.18e6	inactive
CG34225	DRSC05270	1.56e6	1.53e6	1.09e6	1.23e6	inactive
CG10936	DRSC05669	6.35e5		8.83e5		inactive
CG10936	DRSC05670	6.01e5		8.21e5		inactive
CG10936	DRSC06018	1.51e6	1.57e6	1.18e6	1.33e6	inactive
bcd	DRSC12624	1.56e6	1.61e6	1.30e6	1.40e6	inactive
CG2975	DRSC00556	1.58e6	1.57e6	1.03e6	1.30e6	inactive
CG10053	DRSC12502	1.66e6	1.72e6	1.41e6	1.53e6	inactive
Mal-A6	DRSC07233	1.71e6	1.66e6	1.37e6	1.51e6	inactive
cue	DRSC08248	1.57e6	1.47e6	1.22e6	1.10e6	inactive
CG14861	DRSC14984	1.24e6	1.41e6	1.11e6	1.25e6	inactive
Mrm2	DRSC14310	1.21e6	1.24e6	1.09e6	1.21e6	inactive
betaTub97EF	DRSC15666	1.66e6	1.70e6	8.87e5	1.03e6	inactive
betaTub97EF	DRSC15667	1.54e6	1.56e6	9.75e5	1.16e6	inactive
betaTub97EF	DRSC15668	1.51e6	1.52e6	1.00e6	1.13e6	inactive
CG12477	DRSC09886	1.72e6	1.80e6	1.28e6	1.36e6	inactive

Entries listed so far whose target name starts with S or s:
gene	dsRNA	Kc cell number, rep 1	Kc cell number, rep 2	S2R+ cell number, rep 1	S2R+ cell number, rep 2	call
Sara	DRSC04653	1.42e6	1.50e6	1.22e6	3.30e5	inactive
SLO2	DRSC06212	5.68e5	8.31e5	4.87e5	5.24e5	active
SLO2	DRSC06214	1.64e6	1.70e6	1.41e6	1.51e6	inactive
SLO2	DRSC06216	1.40e6	1.52e6	1.21e6	1.34e6	inactive
SLO2	DRSC06218	1.46e6	1.58e6	1.19e6	1.28e6	inactive
SLO2	DRSC06219	7.10e5	9.35e5	4.81e5	5.32e5	active
